# Source: article PMC11302688, “The Effect of Replication Protein A Inhibition and Post-Translational Modification on ATR Kinase Signaling” (Research Square, 2024)
# Test system: RPA (His-tagged heterotrimer RPA70/RPA32/RPA14)
# Assay: EMSA (dsDNA unwinding)
# Details: unwinding read-out, inhibited by PAME 1.6-25 uM; PAME EMSA: 10 mM Tris pH 7.5, 10 mM NaCl, 10% glycerol, 25 C, 10 nM DNA, 7 nM (ssDNA) or 14 nM (duplex) RPA, 1% agarose; recombinant protein; protein details: His (on RPA70, plasmid p11d-tRPA70-His); label: 5' IRDye700 on polyT
sequence,measurement,value
TTTTTTTTTTTTTTTTTTTTTTTTTTTTTT (double strand) [polyT/polyA 30mer duplex],binding result,binds

# Construct, isoform or probe ends are uncertain for at least one entry. At least one verdict rests on a figure or table, not on a statement of the authors.
